# The other results are listed elsewhere or left out.
# Amino acid sequences for entries named in this document (tags omitted). A change or cut given only in a name is not applied to a line headed by its entry.
# UniProt Q9NQP4, whole entry: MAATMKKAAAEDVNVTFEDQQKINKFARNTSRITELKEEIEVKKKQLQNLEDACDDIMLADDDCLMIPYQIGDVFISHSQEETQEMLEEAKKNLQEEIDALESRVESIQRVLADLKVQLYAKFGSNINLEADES
# UniProt Q9H0N5: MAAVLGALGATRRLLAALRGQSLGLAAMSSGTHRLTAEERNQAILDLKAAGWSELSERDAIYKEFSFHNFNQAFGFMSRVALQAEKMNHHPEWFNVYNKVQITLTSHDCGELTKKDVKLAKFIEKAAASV
# UniProt Q58A45: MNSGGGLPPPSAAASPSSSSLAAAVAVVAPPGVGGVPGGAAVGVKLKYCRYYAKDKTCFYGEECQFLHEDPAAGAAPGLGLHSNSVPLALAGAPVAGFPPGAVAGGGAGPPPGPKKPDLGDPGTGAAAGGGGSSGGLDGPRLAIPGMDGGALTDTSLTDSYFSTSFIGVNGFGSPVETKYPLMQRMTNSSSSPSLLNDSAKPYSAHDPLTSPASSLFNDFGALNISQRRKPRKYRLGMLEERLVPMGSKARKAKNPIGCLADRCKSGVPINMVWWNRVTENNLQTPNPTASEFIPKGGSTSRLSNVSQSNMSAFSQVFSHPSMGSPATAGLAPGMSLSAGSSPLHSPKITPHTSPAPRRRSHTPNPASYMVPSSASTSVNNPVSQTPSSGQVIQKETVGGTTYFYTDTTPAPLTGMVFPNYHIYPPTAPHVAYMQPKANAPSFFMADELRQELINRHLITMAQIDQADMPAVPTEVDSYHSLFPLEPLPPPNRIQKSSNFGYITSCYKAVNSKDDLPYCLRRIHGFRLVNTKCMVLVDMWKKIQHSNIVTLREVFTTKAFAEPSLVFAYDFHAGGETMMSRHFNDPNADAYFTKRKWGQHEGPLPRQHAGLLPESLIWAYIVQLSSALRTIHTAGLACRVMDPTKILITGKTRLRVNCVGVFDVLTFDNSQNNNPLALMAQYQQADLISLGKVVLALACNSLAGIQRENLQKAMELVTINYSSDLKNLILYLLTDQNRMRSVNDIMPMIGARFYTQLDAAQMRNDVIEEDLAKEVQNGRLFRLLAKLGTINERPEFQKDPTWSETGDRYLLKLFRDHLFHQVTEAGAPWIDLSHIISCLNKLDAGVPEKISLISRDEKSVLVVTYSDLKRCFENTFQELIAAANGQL
# UniProt P22059, whole entry: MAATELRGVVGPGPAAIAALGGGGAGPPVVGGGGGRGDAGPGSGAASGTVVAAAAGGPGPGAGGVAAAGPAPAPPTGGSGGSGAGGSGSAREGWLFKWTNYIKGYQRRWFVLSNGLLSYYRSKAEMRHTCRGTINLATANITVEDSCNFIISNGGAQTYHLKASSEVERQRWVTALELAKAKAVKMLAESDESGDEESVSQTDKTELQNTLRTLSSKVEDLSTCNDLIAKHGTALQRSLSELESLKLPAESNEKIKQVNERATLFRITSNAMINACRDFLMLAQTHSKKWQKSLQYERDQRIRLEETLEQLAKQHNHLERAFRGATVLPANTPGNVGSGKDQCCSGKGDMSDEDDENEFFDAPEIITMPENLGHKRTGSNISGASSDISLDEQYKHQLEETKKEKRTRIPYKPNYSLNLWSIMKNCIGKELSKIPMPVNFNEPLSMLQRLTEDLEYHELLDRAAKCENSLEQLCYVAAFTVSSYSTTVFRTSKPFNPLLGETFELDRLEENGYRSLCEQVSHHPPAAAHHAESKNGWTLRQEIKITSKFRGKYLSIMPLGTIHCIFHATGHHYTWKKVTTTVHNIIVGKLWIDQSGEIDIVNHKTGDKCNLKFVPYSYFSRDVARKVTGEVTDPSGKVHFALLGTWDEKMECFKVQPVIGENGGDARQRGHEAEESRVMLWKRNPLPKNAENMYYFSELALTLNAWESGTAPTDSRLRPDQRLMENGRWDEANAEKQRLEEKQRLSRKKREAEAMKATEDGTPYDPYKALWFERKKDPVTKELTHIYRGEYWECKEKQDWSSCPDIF
# UniProt Q9BXW6, whole entry: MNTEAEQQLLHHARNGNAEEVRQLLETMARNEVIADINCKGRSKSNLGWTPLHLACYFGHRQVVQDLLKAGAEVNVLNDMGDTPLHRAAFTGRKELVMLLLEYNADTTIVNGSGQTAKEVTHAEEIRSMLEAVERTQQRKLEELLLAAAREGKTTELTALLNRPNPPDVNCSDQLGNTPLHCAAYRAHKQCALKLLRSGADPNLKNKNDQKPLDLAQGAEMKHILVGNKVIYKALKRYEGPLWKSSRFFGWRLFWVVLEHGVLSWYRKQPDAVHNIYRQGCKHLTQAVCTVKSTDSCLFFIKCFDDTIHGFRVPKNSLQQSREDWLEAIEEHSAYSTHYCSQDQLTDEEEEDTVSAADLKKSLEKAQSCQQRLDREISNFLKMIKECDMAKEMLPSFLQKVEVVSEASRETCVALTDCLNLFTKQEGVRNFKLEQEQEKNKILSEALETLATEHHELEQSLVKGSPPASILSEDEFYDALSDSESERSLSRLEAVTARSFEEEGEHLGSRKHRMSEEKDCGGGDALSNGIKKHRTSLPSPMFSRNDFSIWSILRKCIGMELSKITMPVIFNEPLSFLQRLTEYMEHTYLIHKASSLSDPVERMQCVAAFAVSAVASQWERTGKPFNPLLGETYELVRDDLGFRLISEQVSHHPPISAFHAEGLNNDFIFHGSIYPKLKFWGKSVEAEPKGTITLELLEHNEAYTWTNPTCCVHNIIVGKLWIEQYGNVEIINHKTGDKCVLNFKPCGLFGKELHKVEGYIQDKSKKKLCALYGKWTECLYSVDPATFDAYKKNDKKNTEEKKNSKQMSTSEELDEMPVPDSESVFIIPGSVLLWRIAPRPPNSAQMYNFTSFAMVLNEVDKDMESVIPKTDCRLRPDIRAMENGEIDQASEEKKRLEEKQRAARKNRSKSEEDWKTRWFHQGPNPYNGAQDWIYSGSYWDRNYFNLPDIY
# UniProt Q16875: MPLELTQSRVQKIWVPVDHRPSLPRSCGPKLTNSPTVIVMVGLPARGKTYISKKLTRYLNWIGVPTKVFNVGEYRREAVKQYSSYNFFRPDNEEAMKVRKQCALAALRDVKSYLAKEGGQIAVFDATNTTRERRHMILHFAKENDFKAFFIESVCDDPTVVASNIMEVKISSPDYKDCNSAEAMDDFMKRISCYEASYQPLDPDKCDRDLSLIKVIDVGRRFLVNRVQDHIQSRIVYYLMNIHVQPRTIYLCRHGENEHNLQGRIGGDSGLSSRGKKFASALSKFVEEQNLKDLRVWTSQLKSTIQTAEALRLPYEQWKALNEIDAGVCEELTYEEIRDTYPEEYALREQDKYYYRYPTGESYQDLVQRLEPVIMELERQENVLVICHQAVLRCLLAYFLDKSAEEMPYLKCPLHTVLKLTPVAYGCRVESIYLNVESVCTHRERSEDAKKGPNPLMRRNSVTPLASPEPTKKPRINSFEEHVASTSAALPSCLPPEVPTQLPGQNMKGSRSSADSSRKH
# UniProt Q96RD7, whole entry: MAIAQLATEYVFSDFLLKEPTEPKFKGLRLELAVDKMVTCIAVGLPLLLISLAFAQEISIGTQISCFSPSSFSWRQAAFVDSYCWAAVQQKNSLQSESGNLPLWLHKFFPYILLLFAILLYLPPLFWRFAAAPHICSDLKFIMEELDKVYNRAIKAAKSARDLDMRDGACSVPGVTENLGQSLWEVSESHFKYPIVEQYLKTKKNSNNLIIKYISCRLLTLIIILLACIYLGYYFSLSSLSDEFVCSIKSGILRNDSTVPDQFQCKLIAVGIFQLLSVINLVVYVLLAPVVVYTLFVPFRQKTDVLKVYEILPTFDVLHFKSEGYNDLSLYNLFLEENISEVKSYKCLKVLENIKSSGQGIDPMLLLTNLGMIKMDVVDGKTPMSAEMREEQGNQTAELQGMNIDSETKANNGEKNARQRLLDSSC
# UniProt Q9UBV8: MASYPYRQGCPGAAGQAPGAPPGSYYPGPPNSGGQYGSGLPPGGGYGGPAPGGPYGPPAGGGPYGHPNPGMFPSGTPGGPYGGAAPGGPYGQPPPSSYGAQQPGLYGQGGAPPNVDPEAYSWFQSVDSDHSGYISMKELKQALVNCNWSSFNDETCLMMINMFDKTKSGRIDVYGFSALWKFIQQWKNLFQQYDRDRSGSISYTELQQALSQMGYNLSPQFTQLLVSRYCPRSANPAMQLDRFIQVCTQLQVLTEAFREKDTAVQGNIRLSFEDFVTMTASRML
# UniProt Q96AQ6: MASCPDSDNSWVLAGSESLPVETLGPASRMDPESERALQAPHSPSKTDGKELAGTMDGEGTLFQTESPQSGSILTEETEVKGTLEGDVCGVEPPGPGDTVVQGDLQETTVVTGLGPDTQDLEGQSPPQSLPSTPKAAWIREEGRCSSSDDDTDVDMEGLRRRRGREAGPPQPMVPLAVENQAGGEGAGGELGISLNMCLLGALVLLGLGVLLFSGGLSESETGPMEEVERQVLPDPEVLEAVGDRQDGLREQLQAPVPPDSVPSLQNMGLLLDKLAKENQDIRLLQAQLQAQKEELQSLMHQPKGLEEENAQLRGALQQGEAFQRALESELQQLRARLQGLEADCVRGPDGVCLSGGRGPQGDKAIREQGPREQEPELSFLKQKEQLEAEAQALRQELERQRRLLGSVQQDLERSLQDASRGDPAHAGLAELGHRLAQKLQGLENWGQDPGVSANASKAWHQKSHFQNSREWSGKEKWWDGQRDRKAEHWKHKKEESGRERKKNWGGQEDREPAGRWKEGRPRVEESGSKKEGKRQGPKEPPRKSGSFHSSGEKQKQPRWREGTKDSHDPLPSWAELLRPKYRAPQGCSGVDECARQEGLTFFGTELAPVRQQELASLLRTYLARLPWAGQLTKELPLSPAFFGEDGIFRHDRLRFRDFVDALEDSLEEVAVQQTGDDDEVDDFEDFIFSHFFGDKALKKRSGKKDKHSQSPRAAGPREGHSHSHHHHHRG
# UniProt Q00537: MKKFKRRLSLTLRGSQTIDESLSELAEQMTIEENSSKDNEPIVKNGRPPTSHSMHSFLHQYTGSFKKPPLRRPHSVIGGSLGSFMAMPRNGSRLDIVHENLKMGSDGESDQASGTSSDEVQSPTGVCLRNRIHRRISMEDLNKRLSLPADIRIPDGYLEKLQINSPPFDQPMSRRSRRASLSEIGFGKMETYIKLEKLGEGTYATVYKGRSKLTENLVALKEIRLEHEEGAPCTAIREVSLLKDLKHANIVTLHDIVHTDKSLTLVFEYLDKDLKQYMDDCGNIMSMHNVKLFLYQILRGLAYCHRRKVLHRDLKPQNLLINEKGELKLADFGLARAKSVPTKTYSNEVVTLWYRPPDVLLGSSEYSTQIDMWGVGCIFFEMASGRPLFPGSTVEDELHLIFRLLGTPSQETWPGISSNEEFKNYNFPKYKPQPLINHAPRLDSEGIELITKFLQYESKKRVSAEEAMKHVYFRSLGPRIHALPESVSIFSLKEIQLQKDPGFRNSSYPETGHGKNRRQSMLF
# UniProt Q8TCD5: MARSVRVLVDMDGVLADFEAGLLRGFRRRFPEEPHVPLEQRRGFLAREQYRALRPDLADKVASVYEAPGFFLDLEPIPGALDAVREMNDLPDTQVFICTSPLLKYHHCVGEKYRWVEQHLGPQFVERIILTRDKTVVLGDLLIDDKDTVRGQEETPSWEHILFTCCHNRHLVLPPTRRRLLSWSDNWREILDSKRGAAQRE
# UniProt O75879: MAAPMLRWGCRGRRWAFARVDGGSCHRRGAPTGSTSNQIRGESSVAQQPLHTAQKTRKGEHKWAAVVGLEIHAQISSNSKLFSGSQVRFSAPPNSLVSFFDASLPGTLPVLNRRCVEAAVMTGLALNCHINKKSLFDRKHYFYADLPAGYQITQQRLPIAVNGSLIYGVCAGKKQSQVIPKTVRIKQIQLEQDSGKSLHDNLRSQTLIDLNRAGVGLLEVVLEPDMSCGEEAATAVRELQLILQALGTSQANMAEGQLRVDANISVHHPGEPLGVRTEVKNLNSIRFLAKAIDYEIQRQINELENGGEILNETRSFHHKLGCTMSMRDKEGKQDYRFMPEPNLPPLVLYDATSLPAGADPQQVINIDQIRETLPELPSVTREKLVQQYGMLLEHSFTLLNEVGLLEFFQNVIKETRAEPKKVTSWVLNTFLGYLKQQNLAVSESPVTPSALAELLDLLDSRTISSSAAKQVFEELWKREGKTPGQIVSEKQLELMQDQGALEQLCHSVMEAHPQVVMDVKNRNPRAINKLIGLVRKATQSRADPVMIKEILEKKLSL
# UniProt Q9UHV9, whole entry: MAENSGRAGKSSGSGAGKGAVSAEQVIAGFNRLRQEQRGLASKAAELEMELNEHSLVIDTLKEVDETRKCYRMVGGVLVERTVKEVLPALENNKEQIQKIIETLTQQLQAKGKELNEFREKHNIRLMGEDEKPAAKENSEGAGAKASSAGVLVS
# UniProt O75340: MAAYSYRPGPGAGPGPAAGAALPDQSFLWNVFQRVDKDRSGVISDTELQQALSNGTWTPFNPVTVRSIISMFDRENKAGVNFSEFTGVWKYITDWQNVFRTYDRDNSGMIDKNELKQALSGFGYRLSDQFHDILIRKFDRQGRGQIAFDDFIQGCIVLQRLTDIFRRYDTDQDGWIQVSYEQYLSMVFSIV
# Compound: COc1ccc(Cn2ccc3ccc(C(=O)NO)cc32)cc1
# Assay: dose-dependent thermal stabilisation call (2D-TPP, DLPTP, 10% FDR) (binary (1 = stabilised)); higher = stabilised by the compound
# Conditions: system: HL-60 intact cells; concentration range 0.04-10 µM
row,Target,dose-dependent thermal stabilisation call
1,PFDN4 (UniProt Q9NQP4),inactive: 0
2,PCBD2 (UniProt Q9H0N5),inactive: 0
3,NUDT1 (UniProt P36639),inactive: 0
4,PDIA6 (UniProt Q15084),inactive: 0
5,PAN3 (UniProt Q58A45),inactive: 0
6,P2RX7 (UniProt Q99572),inactive: 0
7,OSBP (UniProt P22059),inactive: 0
8,PDIA5 (UniProt Q14554),inactive: 0
9,NUDT21 (UniProt O43809),inactive: 0
10,NUDT18 (UniProt Q6ZVK8),inactive: 0
11,PCMTD2 (UniProt Q9NV79),inactive: 0
12,OSBPL1A (UniProt Q9BXW6),inactive: 0
13,NRD1 (UniProt O43847),inactive: 0
14,ORAI1 (UniProt Q96D31),inactive: 0
15,PABPN1 (UniProt Q86U42),inactive: 0
16,NUCKS1 (UniProt Q9H1E3),inactive: 0
17,PFN2 (UniProt P35080),inactive: 0
18,PFKFB3 (UniProt Q16875),inactive: 0
19,PANX1 (UniProt Q96RD7),inactive: 0

row,Target,dose-dependent thermal stabilisation call
1,PEF1 (UniProt Q9UBV8),inactive: 0
2,PGAM1 (UniProt P18669),active: 1
3,OXR1 (UniProt Q8N573),inactive: 0
4,PEX19 (UniProt P40855),inactive: 0
5,PBXIP1 (UniProt Q96AQ6),inactive: 0
6,NVL (UniProt O15381),inactive: 0
7,PARP1 (UniProt P09874),inactive: 0
8,PCTK2 (UniProt Q00537),inactive: 0
9,NT5C (UniProt Q8TCD5),inactive: 0
10,ORC4L (UniProt O43929),inactive: 0
11,PET112L (UniProt O75879),inactive: 0
12,NUDCD3 (UniProt Q8IVD9),inactive: 0
13,PACSIN3 (UniProt Q9UKS6),inactive: 0
14,PFDN2 (UniProt Q9UHV9),inactive: 0
15,PDZD8 (UniProt Q8NEN9),inactive: 0
16,PDAP1 (UniProt Q13442),inactive: 0
17,PARP16 (UniProt Q8N5Y8),inactive: 0
18,PBX2 (UniProt P40425),inactive: 0
19,PDCD6 (UniProt O75340),inactive: 0

# 2 entries from above, tab-delimited:
row	Target	dose-dependent thermal stabilisation call
12	NUDCD3 (UniProt Q8IVD9)	inactive: 0
13	PACSIN3 (UniProt Q9UKS6)	inactive: 0
